Values of other authors in patent US20110257170A1, “4-MORPHOLINO-PYRIDO[3,2-D]PYRIMIDINES” (MERCK SERONO SA, priority 2008, published 2011).
Where two headings read alike, the source gives them in different places. At least one compound was matched to its structure with a doubt left.

Tested on: Class I PI3-kinases
Details: Fruman et al., 1998, cited from earlier work

| SMILES | IC50 (read-out: IC50 against each of the various Class I PI3-kinases) [µM] | IC50 (read-out: IC50 against each of these PI3-kinases) [µM] |
| --- | --- | --- |
| COC[C@H]1OC(=O)c2coc3c2[C@@]1(C)C1=C(C3=O)[C@@H]2CCC(=O)[C@@]2(C)C[C@H]1OC(C)=O [Wortmannin] | 0.001 to 0.01 |  |
| O=c1cc(N2CCOCC2)oc2c(-c3ccccc3)cccc12 [LY294002] |  | 15 to 20 |
